Assay results published in PubChem BioAssay AID2685 (National Center for Advancing Translational Sciences (NCATS), 2010).
The other results are listed elsewhere or left out. The main result of the screen is listed elsewhere. These columns were measured beside it and carry no call. Compounds called inactive in the main read-out are mostly missing here. Words in brackets tell the shape of the fitted curve; partial curves, single points and poor fits give uncertain potencies.

Experiment: qHTS Assay for Lipid Storage Modulators in Drosophila S3 Cells;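 as to cell number change: cells counted by Cell Tracker Red CMTPX staining in the red channel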
Details: BODIPY lipid droplet fluorescence, 18-24 h; for cell number change: measured here: cell count max response, cells fed with added oleic acid
Outline: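 Laser-scanning cytometry quantifies lipid droplet accumulation (500–530 nm total intensity; droplet/cell object ratio) in oleic acid-fed (400 uM added) Drosophila S3 cells treated with a concentration series. 20 uM Triacsin C defined 100% inhibition.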

[1] = measured here: cell number channel AC50, cells fed with added oleic acid
[2] = measured here: lipid fluorescence (Fed channel) AC50, cells fed with added oleic acid

Row | SMILES | cell number change | AC50 [1] | AC50 [2]
1 | Cc1ccc(-n2ncc(N(C)C)c(Cl)c2=O)cc1 | 20.4% | 4.11 nM [rising, full curve, poor fit] | 29100 nM [rising, partial curve, poor fit]
2 | CCOc1ccc(CNC(=O)c2cccc(NC(=O)C3=C(C)OCCS3)c2)cc1 | -20.1% |  | 6510 nM [rising, single point]
3 | CC(C)OP(=O)(c1ccc(N(C)C)cc1)C(Nc1ccccc1)c1cccnc1 (centres undefined) |  | 6510 nM [rising, single point] | 4110 nM [rising, partial curve]
4 | CC1(C)NC(=O)N(CC(O)CN(c2ccccc2)S(=O)(=O)c2ccccc2[N+](=O)[O-])C1=O (centres undefined) | 19.7% |  | 
5 | Cc1nnc(SCC(=O)c2c(N)n(C)c(=O)n(C)c2=O)n1Cc1ccccc1 | -5.33% |  | 2310 nM [falling, single point]
6 | Cn1c(=O)c2c(SCC(=O)Nc3ccc4c(c3)OCCO4)nc(CC(C)(C)C)nc2n(C)c1=O | 6.62% |  | 4110 nM [rising, single point]
7 | COc1ccc(/C=N/NC(=O)CCSc2nc3ccccc3s2)cc1OC | 32.8% | 2060 nM [rising, full curve] | 
8 | CCOc1ccc(-n2c(=S)sc3c(=O)n(-c4ccccc4)c(SC)nc32)cc1 | 24.1% |  | 6510 nM [rising, single point]
9 | COc1ccc(N2CCN(c3ccc(N4C(=O)COCC4=O)cc3[N+](=O)[O-])CC2)cc1 | -13.1% |  | 16400 nM [falling, partial curve]
10 | COc1ccc(NC(=O)COC(=O)CNS(=O)(=O)/C=C/c2ccccc2)cc1OC | -27.2% |  | 
11 | O=C(CSc1ccc(Br)cc1)N1CCN(C(=O)c2ccco2)CC1 |  |  | 29100 nM [rising, partial curve, poor fit]
12 | Cc1ccc(C)c(-c2nnc(NC(=O)c3ccco3)o2)c1 | 9.44% | 731 nM [falling, single point] | 
13 | O=C(Nc1cccc(-c2ccc(N3CCOCC3)nn2)c1)c1ccccc1 |  | 184 nM [rising, full curve, poor fit] | 411 nM [rising, full curve, poor fit]
14 | Cc1cc(C)n(C(=O)C2CCCN2S(=O)(=O)c2ccc(Cl)cc2)n1 (centres undefined) | -8.75% |  | 2060 nM [falling, partial curve, poor fit]
15 | Cc1ccc(C(C)n2cc(C(=O)NCc3ccncc3)nn2)cc1 (centres undefined) | 31.5% | 8200 nM [rising, single point] | 23100 nM [rising, single point]
16 | CC(/C=N/Nc1nc2ccccc2[nH]1)=C\c1ccccc1 | -46.7% | 7310 nM [falling, partial curve] | 
17 | CCCCn1c(-c2ccc(F)c(F)c2)nc2cc3[nH]c(=O)c(C(C)C)nc3cc21 | 22.7% |  | 
18 | CC(C)c1ccc(NC(=S)Nc2ccc3cn[nH]c3c2)cc1 | -22% | 291 nM [rising, single point] | 
19 | CCCCn1c(N)c(N(CCOC)C(=O)CN2c3ccccc3CC2C)c(=O)[nH]c1=O (centres undefined) | 7.94% | 3660 nM [rising, single point] | 

A section taken from the entries so far:
Row | SMILES | cell number change | AC50 [1] | AC50 [2]
10 | COc1ccc(NC(=O)COC(=O)CNS(=O)(=O)/C=C/c2ccccc2)cc1OC | -27.2% |  | 
11 | O=C(CSc1ccc(Br)cc1)N1CCN(C(=O)c2ccco2)CC1 |  |  | 29100 nM [rising, partial curve, poor fit]

(cont.)

Row | SMILES | cell number change | AC50 [1] | AC50 [2]
20 | O=C(NCCCN1CCN(CCCNC(=O)c2cccc([N+](=O)[O-])c2)CC1)c1cccc([N+](=O)[O-])c1 |  | 731 nM [falling, single point] | 
21 | Cc1nnc(SC(C)C(=O)Nc2sc3c(c2C#N)CCCC3)[nH]c1=O (centres undefined) | 10.8% |  | 
22 | COC(=O)COc1ccc(/C=C2/NC(=O)N(CC(=O)OC)C2=O)cc1 | 11.8% | 411 nM [falling, single point] | 
23 | NC1=NC(=O)/C(=C/c2ccc(Cl)cc2Cl)S1 | -9.18% |  | 3660 nM [falling, full curve, poor fit]
24 | COc1ccccc1N(CC(=O)N1CCCCC1)S(=O)(=O)c1ccccc1 | 0.643% |  | 580 nM [falling, partial curve, poor fit]
25 | CCOC(=O)C1CCCN(c2oc(-c3ccc(OC)cc3)nc2C#N)C1 (centres undefined) | 51.2% | 5170 nM [rising, partial curve, poor fit] | 
26 | CN(Cc1ccon1)C(=O)CC1C(=O)NCCN1Cc1ccc(F)c(F)c1 (centres undefined) | -3.18% |  | 1460 nM [falling, partial curve]
27 | Cc1ccc(C(=O)C2CCN(CC(=O)Nc3ccc(N(C)C)cc3)CC2)cc1 | 23.4% |  | 10300 nM [rising, partial curve]
28 | CC(OC(=O)Nc1cccc(Cl)c1)C(=O)O (centres undefined) |  |  | 6510 nM [falling, single point]
29 | CCOC(=O)C1=C(CSc2nc3c(cc2C#N)CN(C)CC3)OC(N)=C(C#N)C1c1ccncc1 (centres undefined) | 28.5% |  | 29.1 nM [rising, full curve, poor fit]
30 | COc1cc(-c2nn3c(COc4ccccc4)nnc3s2)cc(OC)c1OC | -11.6% |  | 731 nM [rising, full curve, poor fit]
31 | COc1cccc(CN2CCN(C(=O)c3cc(-c4cccnc4)nc4ccc(C)cc34)CC2)c1 | -16% |  | 14600 nM [falling, partial curve]
32 | CCCCn1c(N)c(N(CCC(C)C)C(=O)c2sc3nc4n(c(=O)c3c2C)CCC4)c(=O)[nH]c1=O | 2.44% |  | 1460 nM [falling, partial curve]
33 | Cc1cccc(C)c1NC(=S)N/N=C/c1ccccc1C(=O)O | -9.96% |  | 731 nM [falling, full curve, poor fit]
34 | COc1ccccc1NS(=O)(=O)c1ccc(C(=O)NCC2(N(C)C)CCCCC2)cc1 | -10.7% |  | 
35 | C/C(=C\C(=O)c1ccccc1)Nc1ccc(N2CCOCC2)cc1 | -4.94% | 92 nM [rising, full curve] | 820 nM [falling, partial curve]
36 | CC1CCCC(NC(=O)COC(=O)c2ccc3ccccc3n2)C1C (centres undefined) |  |  | 2310 nM [falling, partial curve]
37 | N#C/C(C(=O)NCc1ccco1)=C1/SC(Cc2ccc(Cl)cc2)C(=O)N1c1ccccc1 (centres undefined) | 3.57% |  | 
38 | COc1ccccc1C(=O)C1CCCN(C(=O)Nc2ccccc2F)C1 (centres undefined) | 8.91% |  | 5.17 nM [rising, full curve, poor fit]
